Laboratory results as given in patent US20220296727A1, “Immunoconjugate” (DendroCyte BioTech Pty Ltd, priority 2019, published 2022).
Some of these results come from one statement about several compounds together.

Tested on: Z-138
Experiment: Cytotoxicity assay on CD300f- lymphoma cell line Z-138
Type: cell-based
Conditions: CD300- lymphoma cell line Z-138

B1: DCR-2PBD: anti-CD300f mAb DCR-2 conjugated to pyrrolobenzodiazepine dimer via Cathepsin B-cleavable linker MA-PEG4-VA-PBD; drug to antibody ratio 3.3 (conjugate)
VH: MESGGGLVQPGGPLKLSCAASGFGFSGSWMSWVRQAPGKGLEWIGQINPDSSTINYTPSLKDKFIISRDNAKNTLYLQINKVRSEDTALYYCARRGFFEGYSAWFAYW
VL: ILMTQTPKFLLVSAGDRVTITCKASQSVSNDVAWYQQKPGQSPSLLIYYASNRNTGVPDRFTGSGYETDFTFTISTVQAEDLAVYFCQQDYTSPWTFGGG
**Q.** For B1, which IC50 is on record?
**A.** Its IC50 is > 0.2 nM.
